{"sequences": {"note": "Sequences of proteins named here, by UniProt entry; tags and fusion partners are left off. A change or cut given only in a name is not applied to a line headed by its entry.", "UniProt P19793": "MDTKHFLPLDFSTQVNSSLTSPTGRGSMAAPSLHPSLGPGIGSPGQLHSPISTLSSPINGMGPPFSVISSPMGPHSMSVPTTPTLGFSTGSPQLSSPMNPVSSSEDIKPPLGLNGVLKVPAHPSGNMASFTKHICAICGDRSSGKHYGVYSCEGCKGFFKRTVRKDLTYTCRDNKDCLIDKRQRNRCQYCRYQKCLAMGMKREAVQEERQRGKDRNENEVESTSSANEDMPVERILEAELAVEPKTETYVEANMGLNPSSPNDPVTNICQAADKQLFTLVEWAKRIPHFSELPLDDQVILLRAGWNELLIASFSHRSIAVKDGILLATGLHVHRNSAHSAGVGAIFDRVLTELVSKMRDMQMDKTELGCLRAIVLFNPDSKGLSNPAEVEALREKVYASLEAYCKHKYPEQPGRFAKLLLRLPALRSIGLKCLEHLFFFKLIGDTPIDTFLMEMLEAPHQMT", "UniProt P04637, whole entry, looked up": "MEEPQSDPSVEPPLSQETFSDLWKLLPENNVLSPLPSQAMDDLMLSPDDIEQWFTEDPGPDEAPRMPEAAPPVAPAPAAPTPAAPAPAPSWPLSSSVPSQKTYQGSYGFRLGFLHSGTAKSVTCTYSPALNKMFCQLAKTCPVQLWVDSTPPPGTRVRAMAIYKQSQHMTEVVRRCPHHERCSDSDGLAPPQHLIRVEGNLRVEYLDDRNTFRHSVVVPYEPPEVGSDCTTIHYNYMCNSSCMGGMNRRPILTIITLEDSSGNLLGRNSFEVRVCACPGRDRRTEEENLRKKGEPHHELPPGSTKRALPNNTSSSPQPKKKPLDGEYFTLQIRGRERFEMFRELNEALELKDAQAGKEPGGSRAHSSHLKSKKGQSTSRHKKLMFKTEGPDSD"}, "source": "PubChem BioAssay (EPA / NIEHS)", "key": {"[1]": {"molecular_target": "Retinoic acid receptor RXR-alpha (Homo sapiens) (UniProt P19793)", "assay": "OT_NURR1_NURR1RXRa_0480: Odyssey Thera (OT) 8-hour HEK293T Protein Complementation Assay for Nurr1/retinoid X receptor (RXR) (AID 2283385)", "outline": "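Interaction of Nurr1 with RXRα read as reconstituted reporter fluorescence in a HEK293T fragment-complementation system, 8 h post-treatment; increase over DMSO baseline analysed.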"}, "[2]": {"molecular_target": "Retinoic acid receptor RXR-alpha (Homo sapiens) (UniProt P19793)", "assay": "OT_NURR1_NURR1RXRa_1440: Odyssey Thera (OT) 24-hour HEK293T Protein Complementation Assay for Nurr1/retinoid X receptor (RXR) (AID 2283386)", "outline": "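Gain in fluorescence, fitted relative to DMSO, reflects Nurr1–RXRα association in HEK293T cells after 24 h dosing. Bait and prey are each linked to a reporter-protein fragment that reassembles on interaction.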"}, "[3]": {"assay": "ATG_XTT_Cytotoxicity: Cytotoxicity Assessment in the Attagene TRANS-FACTORIAL HepG2 Assay (AID 2283584);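 note: cells exposed to compound for 24 h before reading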", "outline": "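HepG2 cells transiently transfected with GAL4-UAS multiple reporter units, dosed 24 h; cytotoxicity read by XTT as loss of signal versus DMSO baseline.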"}, "[4]": {"assay": "TOX21_p53_BLA_p2_viability: Viability Assessment in the Tox21 HCT-116 p53 Agonism Beta-lactamase Assay, Phase 2 (AID 2283591);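 note: actives lower the ATP signal meaning cytotoxicity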", "outline": "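HCT116 p53-bla cells, 4000/well, dosed after 5 h plating (217-fold dilution of DMSO stocks) and incubated 16 h at 37C. Viability taken as cellular ATP by CellTiter-Glo luminescence after 30 min RT; signal loss marks cytotoxicity.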"}, "[5]": {"assay": "TOX21_p53_BLA_p3_viability: Viability Assessment in the Tox21 HCT-116 p53 Agonism Beta-lactamase Assay, Phase 3 (AID 2283593);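 note: cells exposed to compound for 16 h before reading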", "outline": "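HCT116 cells, 4000/well, dosed 5 h after plating by pin transfer (217-fold dilution from DMSO stock) and incubated 16 h at 37C, 5% CO2. Viability read as ATP luminescence with CellTiter-Glo after 30 min at room temperature.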"}, "[6]": {"assay": "TOX21_p53_BLA_p5_viability: Viability Assessment in the Tox21 HCT-116 p53 Agonism Beta-lactamase Assay, Phase 5 (AID 2283600)", "outline": "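Decreased CellTiter-Glo luminescence denotes lost viability. Exposure: 16 h at 37C, 5% CO2, with compounds from DMSO stocks diluted 217-fold in wells of 4000 cells.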"}, "[7]": {"molecular_target": "Cellular tumor antigen p53 (Homo sapiens) (UniProt P04637)", "assay": "TOX21_p53_BLA_p4_ratio: Tox21 HCT-116 p53 Agonism Beta-lactamase Assay, Ratio, Phase 4 (AID 2283601)", "outline": "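HCT-116 p53 beta-lactamase reporter cells (4000/well) preincubated 5 h, then compound (217-fold dilution of DMSO stock) for 16 h at 37C. CCF4-AM substrate added 2 h at room temperature; 460/530 nm emission ratio fitted upward versus DMSO.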"}, "[8]": {"assay": "Tanguay_ZF_120hpf_SNOU_legacy: (Legacy) Oregon State University Tanguay Lab 120 Hour Post-fertilization zebrafish Assay for Snout Malformation (AID 2283637)", "outline": "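Binary brightfield scoring of snout malformation at 120 hpf. Dechorionated 5D wild-type embryos, one per well, static exposure from 6 hpf at 28C, sealed and dark; final DMSO 0.64% (vol/vol), DMSO as baseline; 5uM trimethyltin chloride positive control.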"}, "[9]": {"molecular_target": "Cellular tumor antigen p53 (Homo sapiens) (UniProt P04637)", "assay": "TOX21_p53_BLA_p2_ratio: Tox21 HCT-116 p53 Agonism Beta-lactamase Assay, Ratio, Phase 2 (AID 2283592)", "outline": "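First, HCT116 reporter cells settle for 5 h at 37C. Next, DMSO compound solutions are pinned in (217-fold dilution) and left 16 h. Finally, CCF4-AM substrate is loaded 2 h at room temperature and the 460/530 nm ratio read.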"}, "[10]": {"molecular_target": "Cellular tumor antigen p53 (Homo sapiens) (UniProt P04637)", "assay": "TOX21_p53_BLA_p3_ratio: Tox21 HCT-116 p53 Agonism Beta-lactamase Assay, Ratio, Phase 3 (AID 2283596)", "outline": "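Cells were seeded at 4000/well, rested 5 h at 37C, then dosed with DMSO compound solutions (217-fold dilution) for 16 h. CCF4-AM substrate was loaded for 2 h at room temperature, and the 460/530 nm emission ratio was fitted for gain of signal versus DMSO.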"}, "[11]": {"assay": "TOX21_p53_BLA_p4_viability: Viability Assessment in the Tox21 HCT-116 p53 Agonism Beta-lactamase Assay, Phase 4 (AID 2283597);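 note: hits lower the luminescence signal meaning cytotoxicity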", "outline": "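4000 HCT116 cells per well; 5 h attachment; compounds from DMSO, 217-fold dilution; 16 h at 37C. Then CCF4-AM, 2 h RT, followed by CellTiter-Glo, 30 min RT, luminescence. Decrease = cytotoxicity.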"}, "[12]": {"molecular_target": "Cellular tumor antigen p53 (Homo sapiens) (UniProt P04637)", "assay": "TOX21_p53_BLA_p5_ratio: Tox21 HCT-116 p53 Agonism Beta-lactamase Assay, Ratio, Phase 5 (AID 2283599)", "outline": "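HCT-116 p53-bla cells (4000/well) plated 5 h, dosed with compound (217-fold DMSO dilution) for 16 h at 37 C; CCF4-AM substrate 2 h at room temperature. Activity is the 460/530 nm emission ratio (405 nm excitation), fitted in gain-of-signal direction versus DMSO.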"}, "[13]": {"assay": "Tanguay_ZF_120hpf_YSE_legacy: (Legacy) Oregon State University Tanguay Lab 120 Hour Post-fertilization zebrafish Assay for Yolk Sac Edema (AID 2283634);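 note: actives raise the incidence of yolk sac edema above the DMSO baseline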", "outline": "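Dechorionated Tropical 5D wild-type zebrafish embryos were exposed statically, one per well, from 6 to 120 hpf at 28C in 0.64% DMSO. Yolk sac edema was scored present/absent by brightfield at 120 hpf, and dead embryos were excluded.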"}, "[14]": {"assay": "Tanguay_ZF_120hpf_EYE_legacy: (Legacy) Oregon State University Tanguay Lab 120 Hour Post-fertilization zebrafish Assay for Eye Malformation (AID 2283636);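 note: binary presence or absence of eye malformation scored by brightfield in 120 hpf larvae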", "outline": "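5D wild-type embryos, pronase-dechorionated at 4 hpf; static exposure 6–120 hpf, 28C, dark; DMSO 0.64% final; 5uM trimethyltin chloride positive control. Binary eye-defect scoring at 120 hpf; dead embryos not scored.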"}}, "note": "Where “and” joins values, the source holds several entries; their conditions need not be identical. Equal entries are not always repeated. This list was built around the results that the source calls inconclusive (neither active nor inactive); the mix of calls is not that of the screen. For some of these results: Potencies of inconclusive entries are doubtful fits and often do not repeat. Where a structure was tested more than once in an assay, its records may differ in their call. Calls of active or inactive are those of the source. Rule for the calls: active = hit-call score of the fitted dose curve at least 0.9, where 1 is the maximum; inconclusive = response in the unintended direction; inactive = score below 0.9.", "data": [{"smiles": "CCOC(=O)c1ccc(O)cc1", "values": [{"measurement": "AC50", "setting": "[1]", "value": "inconclusive: 8.95 nM and inconclusive: 2.2 µM and inconclusive: 50 µM"}, {"measurement": "AC50", "setting": "[2]", "value": "inconclusive: 3.86 nM"}, {"measurement": "AC50", "setting": "[3]", "value": "inconclusive: 0.0823 µM"}, {"measurement": "AC50", "setting": "[4]", "value": "inconclusive: 46.1 µM"}, {"measurement": "AC50", "setting": "[5]", "value": "inconclusive: 46.1 µM"}, {"measurement": "outcome", "setting": "[5]", "value": "inactive"}, {"measurement": "AC50", "setting": "[6]", "value": "inconclusive: 46.1 µM and inconclusive: 23 µM"}, {"measurement": "outcome", "setting": "[7]", "value": "inactive"}, {"measurement": "AC50", "setting": "[8]", "value": "active: 24.5 µM"}]}, {"smiles": "Clc1ccccc1C(c1ccccc1)(c1ccccc1)n1ccnc1", "values": [{"measurement": "AC50", "setting": "[1]", "value": "inconclusive: 91 µM"}, {"measurement": "AC50", "setting": "[2]", "value": "inconclusive: 50 µM and inconclusive: 26.9 µM"}, {"measurement": "AC50", "setting": "[3]", "value": "active: 24.2 µM"}, {"measurement": "AC50", "setting": "[4]", "value": "active: 58.2 µM"}, {"measurement": "AC50", "setting": "[9]", "value": "active: 64.8 µM and active: 19 µM"}, {"measurement": "AC50", "setting": "[5]", "value": "active: 81.9 µM"}, {"measurement": "AC50", "setting": "[10]", "value": "active: 74.1 µM"}, {"measurement": "outcome", "setting": "[10]", "value": "inactive"}, {"measurement": "AC50", "setting": "[11]", "value": "active: 34.5 µM and active: 15.3 µM"}, {"measurement": "AC50", "setting": "[12]", "value": "active: 86.2 µM"}, {"measurement": "AC50", "setting": "[6]", "value": "active: 85.1 µM"}, {"measurement": "outcome", "setting": "[6]", "value": "inactive"}, {"measurement": "AC50", "setting": "[7]", "value": "active: 60.2 µM and active: 16.6 µM"}, {"measurement": "AC50", "setting": "[13]", "value": "active: 14.6 µM"}]}, {"smiles": "Cc1ccc(-c2cc(C(F)(F)F)nn2-c2ccc(S(N)(=O)=O)cc2)cc1", "values": [{"measurement": "AC50", "setting": "[1]", "value": "inconclusive: 87.4 µM and inconclusive: 89.5 µM"}, {"measurement": "AC50", "setting": "[2]", "value": "inconclusive: 93.3 µM and inconclusive: 88.4 µM"}, {"measurement": "AC50", "setting": "[3]", "value": "active: 149 µM"}]}, {"smiles": "Oc1cc2ccccc2c2ccccc12", "values": [{"measurement": "AC50", "setting": "[1]", "value": "inconclusive: 8.2 µM"}, {"measurement": "AC50", "setting": "[2]", "value": "inconclusive: 4.14 µM and inconclusive: 3.06 µM"}, {"measurement": "AC50", "setting": "[3]", "value": "active: 16.6 µM and active: 16.3 µM"}, {"measurement": "AC50", "setting": "[4]", "value": "active: 15.2 µM"}, {"measurement": "AC50", "setting": "[9]", "value": "active: 46.1 µM"}, {"measurement": "AC50", "setting": "[5]", "value": "active: 14.5 µM"}, {"measurement": "AC50", "setting": "[10]", "value": "active: 13.6 µM"}, {"measurement": "AC50", "setting": "[11]", "value": "active: 12.2 µM"}, {"measurement": "AC50", "setting": "[12]", "value": "active: 11.6 µM"}, {"measurement": "AC50", "setting": "[6]", "value": "active: 13.3 µM"}, {"measurement": "AC50", "setting": "[7]", "value": "active: 20.4 µM"}, {"measurement": "AC50", "setting": "[13]", "value": "active: 38.3 µM"}, {"measurement": "AC50", "setting": "[14]", "value": "active: 40 µM"}]}, {"smiles": "CCN=c1cc2oc3cc(NCC)c(C)cc3c(-c3ccccc3C(=O)OCC)c-2cc1C", "values": [{"measurement": "AC50", "setting": "[1]", "value": "active: 0.603 µM"}, {"measurement": "AC50", "setting": "[2]", "value": "active: 769 nM"}, {"measurement": "AC50", "setting": "[3]", "value": "active: 32 µM"}, {"measurement": "AC50", "setting": "[4]", "value": "active: 38.3 µM and active: 45.9 µM"}, {"measurement": "AC50", "setting": "[9]", "value": "active: 16 µM and active: 6.62 µM"}, {"measurement": "AC50", "setting": "[5]", "value": "active: 59.6 µM and active: 36.8 µM"}, {"measurement": "AC50", "setting": "[10]", "value": "active: 17.8 µM and active: 31.3 µM"}, {"measurement": "AC50", "setting": "[11]", "value": "active: 67.5 µM and active: 58.2 µM"}, {"measurement": "AC50", "setting": "[12]", "value": "active: 21.9 µM and active: 32 µM"}, {"measurement": "AC50", "setting": "[7]", "value": "active: 35.8 µM and active: 44.5 µM"}]}]}
